# Experimental data as given in PubChem BioAssay AID504467 (National Center for Advancing Translational Sciences (NCATS), 2011).
# Screen size: about 330,000 compounds; about 7,700 (2.3%) were called active. This list was built around the results that the source calls inconclusive (neither active nor inactive); the mix of calls is not that of the screen. The call rests on the fitted dose curve; in most records, active means well fitted inhibition curve with a large enough effect; inconclusive means small, poorly fitted or top-dose-only effect, or effect the other way; inactive means flat fitted curve, though single readings scatter. Where the call is inconclusive, the potency comes from a doubtful curve fit.
# Experiment: qHTS screen for small molecules that inhibit ELG1-dependent DNA repair in human embryonic kidney (HEK293T) cells expressing luciferase-tagged ELG1; further: nearly all actives have a fitted effect of over 55% in size
# Conditions: HEK293T ELG1-luciferase reporter, luminescence, 16 h, DNA damage induced by 5-fluorouridine; activity change, negative = inhibition: at 46.1 µM (top of the series)
# Summary of the method: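 Step one: seed 2,000 cells per well. Step two: pin-transfer compound or DMSO alongside 5-fluorouridine. Step three: incubate 16 hr, 37 °C, 5% CO2. Step four: add ONE-Glo, wait 30 min, read luminescence.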
# On the % scale 0 is the no-effect control and ±100 the full control effect; potency means the concentration at half of the fitted maximal effect.
SMILES,Potency,"activity change, negative = inhibition"
O=C(Nc1nc2c(s1)CN(Cc1ccccc1)CC2)c1c(F)cccc1F,"inconclusive: 20.6 µM [activator, partial curve]",
COc1ccc(-n2nc(C(=O)NCC(=O)N3CCN(C)CC3)c3ccccc3c2=O)cc1OC,,inactive: 6.78%
Cc1ccc(NNS(=O)(=O)c2ccc(C)cc2)cc1,,inactive: 7.33%
C[C@@]12C(=O)N(Cc3ccc(F)cc3)CC(=O)N1[C@H]1c3cc(Cl)ccc3OC[C@@H]1[C@@H]2c1ccccc1,"inconclusive: 23.1 µM [inhibitor, partial curve, poor fit]",
CC1(C)CC(=O)C(C=Nc2ccc(C(=O)c3ccccc3)cc2N=CC2=C(O)CC(C)(C)CC2=O)=C(O)C1,,inactive: -4.65%
O=C1CC(C(=O)N2CCCc3ccccc32)CN1c1ccc(F)cc1 (configuration not stated),"inconclusive: 14.6 µM [activator, partial curve]",
Cc1ccc(C(=O)Nc2ccc(CN3CCCCC3)cc2)c(C)c1,"inconclusive: 29.1 µM [activator, partial curve, poor fit]",
COc1ccc(CNC(=O)COc2cc3c(c4oc(=O)cc(C)c24)CCC(C)(C)O3)cc1,"inconclusive: 20.6 µM [inhibitor, single point]",
CC(Sc1nc2ccccc2s1)C(=O)N(C)Cc1ccccc1 (configuration not stated),,inactive: -20.7%
O=C(Nc1cc(Cl)ccc1O)c1cc(-c2ccco2)on1,"inconclusive: 23.1 µM [activator, partial curve]",
COc1cc2sc(-c3ccc(S(C)(=O)=O)cc3)c(-c3ccc4c(c3)OCO4)c2cc1OC,"inconclusive: 23.1 µM [inhibitor, partial curve]",
COc1ccc(CCN(C)C(=O)c2cnc(C)cn2)cc1OC,,inactive: 0%
O=c1c([N+](=O)[O-])cc(C(F)(F)F)cn1Cc1c(Cl)cccc1Cl,,inactive: -6.11%
O=C(NCCCn1ccnc1)C(=O)NCc1ccccc1,,inactive: -3.61%
O=C(O)CCn1cc(C(=O)O)c(-c2ccccc2)n1,"inconclusive: 20.6 µM [inhibitor, single point]",
C=CCNC(=O)c1c[nH]c2ccc(S(=O)(=O)N(C)c3ccc(OCC)cc3)cc2c1=O,"inconclusive: 18.3 µM [inhibitor, single point]",
Cc1ccc(C)c(OC(=O)c2cncc(Br)c2)c1,,inactive: -22.3%
COc1ccc(CCNC(=O)c2nn(C)c3c2CS(=O)(=O)c2ccccc2-3)c(OC)c1,active: 23.1 µM,
O=C1C(=O)c2ccccc2C([O-])=C1[n+]1ccccc1,active: 18.3 µM,
COc1ccc(C(=O)N2CC3(CC(c4cccc(NC(=O)COc5ccc(Cl)cc5)c4)=NO3)C[C@@H]2C(N)=O)cc1 (some centres not stated),"inconclusive: 16.4 µM [inhibitor, partial curve]",
CS(=O)(=O)Nc1cccc(C2=NN(C(=O)CCC(=O)O)C(c3cccs3)C2)c1 (configuration not stated),,inactive: -0.586%
CCN(CC)CC(C)(C)COC(=O)c1oc2ccccc2c1C,,inactive: 5.55%
CC1CCN(S(=O)(=O)c2ccc3c(c2)N(CC(=O)NCCCN2C(C)CCCC2C)C(=O)CO3)CC1 (configuration not stated),,inactive: 13.5%
O=C(COC(=O)c1ccc(Cl)nc1)NC1CCCc2ccccc21 (configuration not stated),"inconclusive: 18.3 µM [activator, partial curve, poor fit]",

SMILES,Potency,"activity change, negative = inhibition"
COC(=O)c1nn(-c2ccccc2)c(Sc2ccccc2)c1/C=N/O,"inconclusive: 23.1 µM [inhibitor, partial curve, poor fit]",
CN(CC(=O)Nc1cccc(F)c1)C(=O)c1ccc(OCc2cn3ccccc3n2)cc1,"inconclusive: 7.3 µM [activator, single point]",
Nn1cc(-c2ccccc2)nc1SCC(=O)NCCN1C(=O)CSC1=O,,inactive: 0%
Brc1ccc(-c2nc3ccccc3s2)s1,"inconclusive: 5.8 µM [activator, partial curve]",
O=C1CC(c2ccccc2)CC2=C1C=Nc1ccccc1N2 (configuration not stated),"inconclusive: 23.1 µM [inhibitor, single point]",
CSc1cc(-c2ccc(Cl)cc2)c(C(=O)NN)s1,,inactive: -2.23%
Cc1[nH]c2ccccc2c1/C=N/Nc1nc2ccccc2[nH]1,"inconclusive: 20.6 µM [activator, partial curve]",
CC(C)(C)c1ccc(OCC(=O)NNC(=O)Cc2cccs2)cc1,,inactive: -1.84%
COc1ccc(/C(C)=N/NS(=O)(=O)c2ccccc2)c(OC)c1,,inactive: 12.4%
Oc1ccccc1-c1nc2ccccc2nc1-c1ccccc1,"inconclusive: 29.1 µM [inhibitor, single point]",
Cc1ccccc1-n1c(SCc2c(C)noc2C)nnc1-c1ccncc1,"inconclusive: 8.91 µM [activator, partial curve, poor fit]",
CCOc1ccc(N(CC(=O)Nc2ccccc2OC)S(C)(=O)=O)cc1,,inactive: -30.6%
O=C(CC1C(=O)NCCN1Cc1c(F)cccc1Cl)NCCCOc1cccnc1 (configuration not stated),,inactive: 12.2%
CCOC(=O)N1CCC(NC(=O)COc2cc(=O)n(C)c3ccccc23)CC1,"inconclusive: 29.1 µM [activator, single point]",
CC1CCC(NC(=O)COC(=O)c2ccco2)CC1 (configuration not stated),"inconclusive: 29.1 µM [activator, single point]",
NC(=O)CC(NC(=O)Cc1ccc(Br)cc1)c1ccc(NCCc2ccccc2F)c([N+](=O)[O-])c1 (configuration not stated),,inactive: -0.728%
Oc1ccc(-c2nnc(Nc3cccc(O)c3)c3ccccc23)cc1,"inconclusive: 8.2 µM [inhibitor, partial curve]",
CCOC(=O)c1sc(N)c(C(=O)OCC)c1COC(=O)C1CC(=O)N(Cc2ccco2)C1 (configuration not stated),"inconclusive: 20.6 µM [inhibitor, single point]",
Cc1c(Br)c(C(F)(F)F)nn1CC(=O)NCc1ccccc1,,inactive: 15.7%
CCN1C(=O)C(CC(=O)Nc2ccc(OC)cc2)N(CCc2ccc(OC)cc2)C1=S (configuration not stated),"inconclusive: 16.4 µM [inhibitor, single point]",
Cn1c(O)c(N=NC(=O)c2cc(-c3cccs3)nc3ccccc23)c2ccccc21,active: 14.6 µM,
CC1CCCCN1CCCNC(=O)c1ccc2nc(N3CCCCC3)sc2c1 (configuration not stated),"inconclusive: 0.517 µM [activator, full curve]",
COc1ccc(C)cc1S(=O)(=O)N(CC(=O)N1CCCC1)c1ccccc1,,inactive: -6.15%
Nc1c(N2CCN(c3ccccc3)CC2)c2ccccc2oc1=O,active: 18.4 µM,

SMILES,Potency,"activity change, negative = inhibition"
CCn1ccnc1CN(C)Cc1nc(-c2ccccc2)no1,"inconclusive: 18.3 µM [activator, partial curve]",
O=C(Cc1ccc(F)cc1)NCCS(=O)(=O)N1CCN(c2ccccc2)CC1,"inconclusive: 11.6 µM [inhibitor, single point]",
COC(=O)c1ccccc1NC(=O)C1CCN(S(=O)(=O)c2cc(OC)ccc2OC)CC1,"inconclusive: 20.6 µM [inhibitor, single point]",
COc1cc(OC)cc(C(=O)N2CCN=C2SCc2cccnc2)c1,"inconclusive: 16.4 µM [inhibitor, partial curve, poor fit]",
O=C(NCc1ccccn1)c1cc(Br)ccc1Cl,"inconclusive: 16.4 µM [activator, single point]",
O=C(CN1C(=O)NC(c2ccccc2)(c2ccccc2)C1=O)NC1CCCCC1,,inactive: 2.15%
Cc1cc(C)n2nc(-c3ccc(Br)cc3)cc2n1,"inconclusive: 10 µM [activator, partial curve]",
Cc1ccc(N(C(=O)CNC(=O)c2ccco2)C(C(=O)NCC2CCCO2)c2ccccc2)c(C)c1 (configuration not stated),,inactive: 3.75%
Cc1ccc(NC(=O)Nc2c(C)[nH]c(=O)[nH]c2=O)cc1Cl,,inactive: -12.1%
Cc1ccc(Cc2nnc3n(-c4cccc(C)c4)nc(C(=O)c4ccccc4)n3c2=O)cc1,"inconclusive: 16.4 µM [inhibitor, partial curve]",
O=C(CCN1C(=O)/C(=C\c2ccc(F)cc2)SC1=S)Nc1ccccc1,,inactive: 6.83%
CC1Cc2ccccc2N1C(=O)NC1CC(=O)N(c2ccc3c(c2)OCCO3)C1 (configuration not stated),"inconclusive: 29.1 µM [inhibitor, single point]",
O=C(N/N=C/c1ccoc1)c1cc(Br)ccc1O,,inactive: 27.8%
CC(C)(C)C(=O)Nc1ccc2c(c1)-c1cc(NC(=O)C(C)(C)C)ccc1C2,"inconclusive: 6.51 µM [inhibitor, single point]",
COc1cccc(NS(=O)(=O)c2ccc3[nH]cc(C(=O)NCCC(C)C)c(=O)c3c2)c1,active: 18.4 µM,
Cn1cccc1C(=O)N1CCc2ccccc2C1,"inconclusive: 20.6 µM [activator, single point]",
CCCCC(=O)N1CCCC(c2nc3c(nnn3Cc3cc(C)ccc3C)c(=O)[nH]2)C1 (configuration not stated),"inconclusive: 18.4 µM [inhibitor, partial curve]",
CC1(C)CC(=O)C(C(=O)/C=C/NCCc2ccccc2)C(=O)C1,"inconclusive: 18.4 µM [inhibitor, single point]",
Nc1nnc(-c2ccc(Cl)c(Cl)c2)s1,"inconclusive: 25.9 µM [activator, partial curve, poor fit]",
CCNC(=O)CSc1nnc(-c2cccc(S(=O)(=O)N(CC)CC)c2)n1CCc1ccccc1,"inconclusive: 13 µM [inhibitor, partial curve]",
Cc1ccccc1N=Cc1c(O)n(-c2nccs2)c(=O)c2ccccc12,active: 20.6 µM,
COCc1c(C(=O)N2CCN(c3ncccn3)CC2)oc2ccccc12,,inactive: 2.21%
Cc1ccc(CSCC(=O)N(CCC(C)C)c2c(N)n(Cc3ccccc3)c(=O)[nH]c2=O)cc1,"inconclusive: 20.6 µM [activator, partial curve, poor fit]",
C#CCOCCOCCOCCNc1nc(N2CCN(C(=O)CCCCCCCCCCNC(=O)Cn3cc(C[C@@H](C)O)nn3)CC2)nc(N2CCN(C(=O)CCCCCCCCCCNC(=O)[C@H](CCCCN)n3cc(C[C@@H](C)CC)nn3)CC2)n1,"inconclusive: 29.1 µM [inhibitor, single point]",
